Data as given in PubChem BioAssay AID1259405 (NCATS, 2018).

Screen: 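Silenced genes that increase secreted GFP made by CHO cells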 (primary screen)
Cells: Chinese hamster CHO-K1 ovary cells with stable secreted eGFP expression
Reagent: single siRNA against mouse genes, 0.8 pmol siRNA per well (2 µl of 400 nM stock)
Duration: 3 days
Read-out: 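Per-well intracellular GFP measured by laser scanning cytometry, plus viability from ATP luminescence, each relative to plate median of non-targeting control wells, in %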
Reading the numbers: GFP, % of control: higher = more GFP per well, higher productivity; viability (ATP), % of control: higher = more viable cells (more ATP)
Hit rule: 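a knock-down is called active if GFP reaches 120% or more of non-targeting control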
Shown is an unselected part of about 50,000 reagents. Over the whole deposit, about 4,000 (8%) are marked active. 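Mouse siRNA library applied to hamster cells; one well for each siRNA.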 Reagents against one gene are numbered here.

Arl2bp #1
- GFP, % of control: 59.9
- viability (ATP), % of control: 53.4
- Outcome: inactive

Arl2bp #2
- GFP, % of control: 72.7
- viability (ATP), % of control: 87.7
- Outcome: inactive

Arl2bp #3
- GFP, % of control: 74.1
- viability (ATP), % of control: 61.5
- Outcome: inactive

Bcl6b #1
- GFP, % of control: 76.4
- viability (ATP), % of control: 57.1
- Outcome: inactive

Bcl6b #2
- GFP, % of control: 48.5
- viability (ATP), % of control: 51.9
- Outcome: inactive

Stxbp5l #1
- GFP, % of control: 67.7
- viability (ATP), % of control: 51
- Outcome: inactive

Stxbp5l #2
- GFP, % of control: 76.9
- viability (ATP), % of control: 72
- Outcome: inactive

Stxbp5l #3
- GFP, % of control: 83.5
- viability (ATP), % of control: 68.3
- Outcome: inactive

Atg9b #1
- GFP, % of control: 76.7
- viability (ATP), % of control: 81.8
- Outcome: inactive

Atg9b #2
- GFP, % of control: 90.4
- viability (ATP), % of control: 77.4
- Outcome: inactive

Atg9b #3
- GFP, % of control: 118
- viability (ATP), % of control: 80.7
- Outcome: inactive

Asb13 #1
- GFP, % of control: 99.5
- viability (ATP), % of control: 49.8
- Outcome: inactive

Asb13 #2
- GFP, % of control: 74.9
- viability (ATP), % of control: 75.4
- Outcome: inactive

Asb13 #3
- GFP, % of control: 74.2
- viability (ATP), % of control: 85.4
- Outcome: inactive

Il21 #1
- GFP, % of control: 80
- viability (ATP), % of control: 99.6
- Outcome: inactive

Il21 #2
- GFP, % of control: 38.4
- viability (ATP), % of control: 42.9
- Outcome: inactive

Il21 #3
- GFP, % of control: 50.3
- viability (ATP), % of control: 54.8
- Outcome: inactive

Map3k7cl #1
- GFP, % of control: 110
- viability (ATP), % of control: 86.7
- Outcome: inactive

Map3k7cl #2
- GFP, % of control: 32.2
- viability (ATP), % of control: 54.3
- Outcome: inactive

Map3k7cl #3
- GFP, % of control: 104
- viability (ATP), % of control: 98.6
- Outcome: inactive

Rhebl1 #1
- GFP, % of control: 111
- viability (ATP), % of control: 110
- Outcome: inactive

Rhebl1 #2
- GFP, % of control: 96.1
- viability (ATP), % of control: 107
- Outcome: inactive

Rhebl1 #3
- GFP, % of control: 63.8
- viability (ATP), % of control: 86.1
- Outcome: inactive

Strip2 #1
- GFP, % of control: 58.5
- viability (ATP), % of control: 83
- Outcome: inactive

Strip2 #2
- GFP, % of control: 65.6
- viability (ATP), % of control: 60.1
- Outcome: inactive

Strip2 #3
- GFP, % of control: 55.5
- viability (ATP), % of control: 50
- Outcome: inactive

Mtres1 #1
- GFP, % of control: 87.1
- viability (ATP), % of control: 74.6
- Outcome: inactive

Mtres1 #2
- GFP, % of control: 73.4
- viability (ATP), % of control: 64
- Outcome: inactive

Mtres1 #3
- GFP, % of control: 81.2
- viability (ATP), % of control: 55.4
- Outcome: inactive

Sema3f #1
- GFP, % of control: 97
- viability (ATP), % of control: 83.9
- Outcome: inactive

Sema3f #2
- GFP, % of control: 85.3
- viability (ATP), % of control: 97.2
- Outcome: inactive

Sema3f #3
- GFP, % of control: 73.1
- viability (ATP), % of control: 71.5
- Outcome: inactive

Fndc3b #1
- GFP, % of control: 91
- viability (ATP), % of control: 78.1
- Outcome: inactive

Fndc3b #2
- GFP, % of control: 104
- viability (ATP), % of control: 105
- Outcome: inactive

Fndc3b #3
- GFP, % of control: 87.9
- viability (ATP), % of control: 67.3
- Outcome: inactive

Next part, starting with the last 3 of the part before.
Fndc3b #1
- GFP, % of control: 91
- viability (ATP), % of control: 78.1
- Outcome: inactive

Fndc3b #2
- GFP, % of control: 104
- viability (ATP), % of control: 105
- Outcome: inactive

Fndc3b #3
- GFP, % of control: 87.9
- viability (ATP), % of control: 67.3
- Outcome: inactive

Slc16a13 #1
- GFP, % of control: 42.2
- viability (ATP), % of control: 40.3
- Outcome: inactive

Slc16a13 #2
- GFP, % of control: 31.1
- viability (ATP), % of control: 59.3
- Outcome: inactive

Slc16a13 #3
- GFP, % of control: 65.7
- viability (ATP), % of control: 76.3
- Outcome: inactive

AI504432 #1
- GFP, % of control: 70.4
- viability (ATP), % of control: 61.4
- Outcome: inactive

AI504432 #2
- GFP, % of control: 78.6
- viability (ATP), % of control: 85.2
- Outcome: inactive

AI504432 #3
- GFP, % of control: 29.5
- viability (ATP), % of control: 14.6
- Outcome: inactive

Otor #1
- GFP, % of control: 86.3
- viability (ATP), % of control: 55
- Outcome: inactive

Otor #2
- GFP, % of control: 21.1
- viability (ATP), % of control: 13.3
- Outcome: inactive

Otor #3
- GFP, % of control: 52.3
- viability (ATP), % of control: 73.9
- Outcome: inactive

Kpna3 #1
- GFP, % of control: 120
- viability (ATP), % of control: 99.7
- Outcome: inactive

Kpna3 #2
- GFP, % of control: 39.1
- viability (ATP), % of control: 40
- Outcome: inactive

Kpna3 #3
- GFP, % of control: 81.2
- viability (ATP), % of control: 75.5
- Outcome: inactive

Or8b1c #1
- GFP, % of control: 121
- viability (ATP), % of control: 94.9
- Outcome: active

Or8b1c #2
- GFP, % of control: 77
- viability (ATP), % of control: 79.1
- Outcome: inactive

Or8b1c #3
- GFP, % of control: 65
- viability (ATP), % of control: 68.8
- Outcome: inactive

Hibadh #1
- GFP, % of control: 129
- viability (ATP), % of control: 83.4
- Outcome: active

Hibadh #2
- GFP, % of control: 66
- viability (ATP), % of control: 64.1
- Outcome: inactive

Hibadh #3
- GFP, % of control: 86.4
- viability (ATP), % of control: 78.7
- Outcome: inactive
